These are yes or no findings as the source states them, for the method shown. In cells and extracts the contact can be indirect. Sequences can lack the tags named with a protein.

Amino acid sequences for entries named in this document (tags omitted). A change or cut given only in a name is not applied to a line headed by its entry.
UniProt Q8C0J2: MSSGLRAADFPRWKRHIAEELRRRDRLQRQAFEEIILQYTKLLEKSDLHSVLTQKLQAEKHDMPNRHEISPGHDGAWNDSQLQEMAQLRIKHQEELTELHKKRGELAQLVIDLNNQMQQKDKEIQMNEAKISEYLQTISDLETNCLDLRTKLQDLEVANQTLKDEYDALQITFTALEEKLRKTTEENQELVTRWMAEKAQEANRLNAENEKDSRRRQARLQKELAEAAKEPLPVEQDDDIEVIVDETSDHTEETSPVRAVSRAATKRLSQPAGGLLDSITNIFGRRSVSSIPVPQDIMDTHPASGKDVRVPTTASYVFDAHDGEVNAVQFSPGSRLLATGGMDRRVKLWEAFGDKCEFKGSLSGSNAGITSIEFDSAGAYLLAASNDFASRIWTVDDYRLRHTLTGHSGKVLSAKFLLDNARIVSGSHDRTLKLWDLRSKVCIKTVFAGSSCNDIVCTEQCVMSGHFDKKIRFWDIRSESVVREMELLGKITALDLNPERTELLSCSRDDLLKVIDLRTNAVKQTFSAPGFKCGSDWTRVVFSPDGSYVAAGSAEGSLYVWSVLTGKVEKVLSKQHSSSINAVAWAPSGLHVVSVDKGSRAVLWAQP

In this test the target is GFP-Atg16L1 (mouse Atg16L1, full length) (mouse) (UniProt Q8C0J2). The experiment in a line: co-IP; lysates of 293T cells co-expressing the GFP-tagged and 3Myc-tagged proteins; GFP fusion captured with GST-GFP-nanobody on glutathione Sepharose 4B, 2 h at 4 °C; wash buffer TBS/5 mM MgCl2, 1 mM EDTA, 0.05% NP-40; immunoblot.

B1: NDP52-3Myc (protein, UniProt Q13137 1-446)
chain: MEETIKDPPTSAVLLDHCHFSQVIFNSVEKFYIPGGDVTCHYTFTQHFIPRRKDWIGIFRVGWKTTREYYTFMWVTLPIDLNNKSAKQQEVQFKAYYLPKDDEYYQFCYVDEDGVVRGASIPFQFRPENEEDILVVTTQGEVEEIEQHNKELCKENQELKDSCISLQKQNSDMQAELQKKQEELETLQSINKKLELKVKEQKDYWETELLQLKEQNQKMSSENEKMGIRVDQLQAQLSTQEKEMEKLVQGDQDKTEQLEQLKKENDHLFLSLTEQRKDQKKLEQTVEQMKQNETTAMKKQQELMDENFDLSKRLSENEIICNALQRQKERLEGENDLLKRENSRLLSYMGLDFNSLPYQVPTSDEGGARQNPGLAYGNPYSGIQESSSPSPLSIKKCPICKADDICDHTLEQQQMQPLCFNCPICDKIFPATEKQIFEDHVFCHSL
For B1, the binding result is reported as “no binding”.

Values taken from paper PMC6957511.
